Data: the supplement of paper PMC9233669
Variants at the background level are over-represented here.

Legend:
[1] = system: biotinyl-Trp-oxazolone; experiment: self-aminoacylation, catalytic enhancement (BWO) (fold over background); higher = more active; k-Seq, kA / k0A0; sequences stand for … in GGGAAUGGAUCCACAUCUACGAAUUC…UUCACUGCAGACUUGACGAAGCUG
How it was run: (§1)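 The uncatalyzed rate is the low-activity peak of a bimodal Gaussian fit, and catalytic enhancement is median kA divided by it. The kA values came from pseudo-first-order fits, with 1000 bootstraps, of per-sequence fraction reacted measured by streptavidin capture, triplicate qPCR and Illumina sequencing. Mutagenized RNA pools with a 21-nt variable region (0.43 μM) were reacted with each biotinyl-aminoacyl-oxazolone at 2–1250 μM in 50 μL HEPES/NaCl/KCl/MgCl2/CaCl2 buffer with 5% acetonitrile, pH 6.9–7.0, for 90 minutes at room temperature.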

[2] = system: biotinyl-Leu-oxazolone; experiment: self-aminoacylation, catalytic enhancement (BLO) (fold over background); higher = more active; k-Seq, kA / k0A0; sequences stand for … in GGGAAUGGAUCCACAUCUACGAAUUC…UUCACUGCAGACUUGACGAAGCUG
How it was run: as §1

[3] = system: biotinyl-Val-oxazolone; experiment: self-aminoacylation, catalytic enhancement (BVO) (fold over background); higher = more active; k-Seq, kA / k0A0; sequences stand for … in GGGAAUGGAUCCACAUCUACGAAUUC…UUCACUGCAGACUUGACGAAGCUG
How it was run: as §1

[4] = system: biotinyl-Ile-oxazolone; experiment: self-aminoacylation, catalytic enhancement (BIO) (fold over background); higher = more active; k-Seq, kA / k0A0; sequences stand for … in GGGAAUGGAUCCACAUCUACGAAUUC…UUCACUGCAGACUUGACGAAGCUG
How it was run: as §1

[5] = system: biotinyl-Met-oxazolone; experiment: self-aminoacylation, catalytic enhancement (BMO) (fold over background); higher = more active; k-Seq, kA / k0A0; sequences stand for … in GGGAAUGGAUCCACAUCUACGAAUUC…UUCACUGCAGACUUGACGAAGCUG
How it was run: as §1

AGUACCCUGGUCAUCGCGUGA [Fam2.1 aminoacylation ribozyme variant]
self-aminoacylation [1]: 20.5
self-aminoacylation [2]: 20.3
self-aminoacylation [3]: 12.2
self-aminoacylation [4]: 8.36
self-aminoacylation [5]: 19.4

AUACUUCAAACAAUCGGUCUA [Fam1A.1 aminoacylation ribozyme variant]
self-aminoacylation [1]: 1.9
self-aminoacylation [2]: 0.564
self-aminoacylation [3]: 0.674
self-aminoacylation [4]: 0.636
self-aminoacylation [5]: 0.503

AUGAACCUAGGUCAUCGGGUG [Fam2.2 aminoacylation ribozyme variant]
self-aminoacylation [1]: 6.44
self-aminoacylation [2]: 7.54
self-aminoacylation [3]: 4.28
self-aminoacylation [4]: 4.29
self-aminoacylation [5]: 5.97

AUGCACCUAGGUCAUCGGGUC [Fam2.2 aminoacylation ribozyme variant]
self-aminoacylation [1]: 1.96
self-aminoacylation [2]: 1.28
self-aminoacylation [3]: 1.64
self-aminoacylation [4]: 1.26
self-aminoacylation [5]: 1.05

AUGCACUUAGGUCAUCGGGUG [Fam2.2 aminoacylation ribozyme variant]
self-aminoacylation [1]: 7.92
self-aminoacylation [2]: 10.6
self-aminoacylation [3]: 5.03
self-aminoacylation [4]: 5.29
self-aminoacylation [5]: 8.73

AUUAACCUAGGUCAUCGUGUG [Fam2.2 aminoacylation ribozyme variant]
self-aminoacylation [1]: 0.605
self-aminoacylation [2]: 0.935
self-aminoacylation [3]: 0.862
self-aminoacylation [4]: 0.901
self-aminoacylation [5]: 1.03

AUUACCCGGGUCGUCGAGUGA [Fam2.1 aminoacylation ribozyme variant]
self-aminoacylation [1]: 1.46
self-aminoacylation [2]: 1.23
self-aminoacylation [3]: 1.37
self-aminoacylation [4]: 1.51
self-aminoacylation [5]: 1.1

AUUACCCUGGGCAACGAGUGA [Fam2.1 aminoacylation ribozyme variant]
self-aminoacylation [1]: 10.3
self-aminoacylation [2]: 10.3
self-aminoacylation [3]: 4
self-aminoacylation [4]: 3.81
self-aminoacylation [5]: 7.64

AUUACCCUGGGCAUCGUGUGA [Fam2.1 aminoacylation ribozyme variant]
self-aminoacylation [1]: 1.93
self-aminoacylation [2]: 1.58
self-aminoacylation [3]: 0.981
self-aminoacylation [4]: 0.861
self-aminoacylation [5]: 1.09

AUUACCCUGGUCAGCGAGUGC [Fam2.1 aminoacylation ribozyme variant]
self-aminoacylation [1]: 1.42
self-aminoacylation [2]: 1.93
self-aminoacylation [3]: 1.43
self-aminoacylation [4]: 1.25
self-aminoacylation [5]: 1.77

AUUACCCUGGUCAUCGAGAGG [Fam2.1 aminoacylation ribozyme variant]
self-aminoacylation [1]: 0.95
self-aminoacylation [2]: 1.18
self-aminoacylation [3]: 1.08
self-aminoacylation [4]: 0.663
self-aminoacylation [5]: 1.45

AUUACCCUGGUGAUCGUGUGA [Fam2.1 aminoacylation ribozyme variant]
self-aminoacylation [1]: 1.99
self-aminoacylation [2]: 1.67
self-aminoacylation [3]: 1.21
self-aminoacylation [4]: 1.34
self-aminoacylation [5]: 1.48

AUUACCGUGGUCAUCGAGUGU [Fam2.1 aminoacylation ribozyme variant]
self-aminoacylation [1]: 4.27
self-aminoacylation [2]: 3.51
self-aminoacylation [3]: 2.46
self-aminoacylation [4]: 1.89
self-aminoacylation [5]: 3.17

AUUCACAUAGGUGAUCGGGUG [Fam2.2 aminoacylation ribozyme variant]
self-aminoacylation [1]: 3.79
self-aminoacylation [2]: 3.56
self-aminoacylation [3]: 3.14
self-aminoacylation [4]: 3.05
self-aminoacylation [5]: 3.4

AUUCACCAAGGUCAUCGGGUC [Fam2.2 aminoacylation ribozyme variant]
self-aminoacylation [1]: 0.64
self-aminoacylation [2]: 1.67
self-aminoacylation [3]: 1.26
self-aminoacylation [4]: 1.38
self-aminoacylation [5]: 1.22

AUUCACCAAGGUCAUCGUGUG [Fam2.2 aminoacylation ribozyme variant]
self-aminoacylation [1]: 1.12
self-aminoacylation [2]: 1.29
self-aminoacylation [3]: 1.1
self-aminoacylation [4]: 1.05
self-aminoacylation [5]: 1.29

AUUCACCUACGUCAUCGGCUG [Fam2.2 aminoacylation ribozyme variant]
self-aminoacylation [1]: 1.49
self-aminoacylation [2]: 1.18
self-aminoacylation [3]: 1.38
self-aminoacylation [4]: 1.32
self-aminoacylation [5]: 1.33

AUUCACCUAGGACAUCGUGUG [Fam2.2 aminoacylation ribozyme variant]
self-aminoacylation [1]: 0.572
self-aminoacylation [2]: 1.39
self-aminoacylation [3]: 0.784
self-aminoacylation [4]: 0.833
self-aminoacylation [5]: 0.928

AUUCACCUAGGUAAUCGAGUG [Fam2.2 aminoacylation ribozyme variant]
self-aminoacylation [1]: 0.974
self-aminoacylation [2]: 1.61
self-aminoacylation [3]: 1.22
self-aminoacylation [4]: 1.14
self-aminoacylation [5]: 1.52

AUUCACCUAGGUCAUCAUGUG [Fam2.2 aminoacylation ribozyme variant]
self-aminoacylation [1]: 1.03
self-aminoacylation [2]: 1.64
self-aminoacylation [3]: 1.1
self-aminoacylation [4]: 1.06
self-aminoacylation [5]: 1.44

AUUCACCUAGGUCAUUGGUUG [Fam2.2 aminoacylation ribozyme variant]
self-aminoacylation [1]: 0.579
self-aminoacylation [2]: 1.09
self-aminoacylation [3]: 1.06
self-aminoacylation [4]: 0.962
self-aminoacylation [5]: 0.783

AUUCACCUAGGUCGUCGGGUC [Fam2.2 aminoacylation ribozyme variant]
self-aminoacylation [1]: 1.01
self-aminoacylation [2]: 1.55
self-aminoacylation [3]: 1.43
self-aminoacylation [4]: 1.17
self-aminoacylation [5]: 1.4

AUUCACCUAGUUCAUCGGGAG [Fam2.2 aminoacylation ribozyme variant]
self-aminoacylation [1]: 1.04
self-aminoacylation [2]: 1.19
self-aminoacylation [3]: 0.943
self-aminoacylation [4]: 1.16
self-aminoacylation [5]: 1.07

AUUCACGUAGGUCUUCGGGUG [Fam2.2 aminoacylation ribozyme variant]
self-aminoacylation [1]: 4.88
self-aminoacylation [2]: 4.82
self-aminoacylation [3]: 5.24
self-aminoacylation [4]: 3.86
self-aminoacylation [5]: 4.21

AUUCGUCUAGGUCAUCGGGUG [Fam2.2 aminoacylation ribozyme variant]
self-aminoacylation [1]: 6.11
self-aminoacylation [2]: 5.27
self-aminoacylation [3]: 4.85
self-aminoacylation [4]: 4.9
self-aminoacylation [5]: 4.96

AUUCUCCUAGGUCAUCGGGUC [Fam2.2 aminoacylation ribozyme variant]
self-aminoacylation [1]: 1.52
self-aminoacylation [2]: 1.73
self-aminoacylation [3]: 1.72
self-aminoacylation [4]: 1.65
self-aminoacylation [5]: 1.64

AUUCUCCUAGGUCAUCGGUUG [Fam2.2 aminoacylation ribozyme variant]
self-aminoacylation [1]: 0.865
self-aminoacylation [2]: 1.5
self-aminoacylation [3]: 1.26
self-aminoacylation [4]: 1.22
self-aminoacylation [5]: 1.39

AUUUACCUAGGCCAUCGGGUG [Fam2.2 aminoacylation ribozyme variant]
self-aminoacylation [1]: 3.98
self-aminoacylation [2]: 3.95
self-aminoacylation [3]: 3.2
self-aminoacylation [4]: 2.47
self-aminoacylation [5]: 3.07
